From PubChem BioAssay AID2685 (National Center for Advancing Translational Sciences (NCATS), 2010)
This is one part of the list. These are further read-outs of the screen, such as a control signal, another cell line or another target. No call is given for them. Compounds called inactive in the main read-out are mostly missing here. The note in brackets gives the kind of curve behind each potency; many fits are weak.

Experiment: qHTS Assay for Lipid Storage Modulators in Drosophila S3 Cells;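 on cell number change: cells counted by Cell Tracker Red CMTPX staining in the red channel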
Details: BODIPY lipid droplet fluorescence, 18-24 h; for cell number change: measured here: cell count max response, cells fed with added oleic acid
How it was run: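 Drosophila S3 cells loaded with oleic acid (400 uM, as added) and compounds at several concentrations; lipid droplets imaged by 488-nm laser-scanning cytometry, 500–530 nm intensity and object ratio to cell channel. Percent activity normalized to 20 uM Triacsin C.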

[1] = measured here: cell number channel AC50, cells fed with added oleic acid
[2] = measured here: lipid fluorescence (Fed channel) AC50, cells fed with added oleic acid

SMILES | cell number change [%] | AC50 [1] | AC50 [2]
Cc1[nH]c(C)c(C(=O)O)c1CNC1CCCCC1C (centres undefined) | -11.1 |  | 
O=C(C1CCN(S(=O)(=O)c2ccc(F)cc2)CC1)N1CCCC(C(F)(F)F)C1 (centres undefined) |  | 3.66 µM [falling, partial curve] | 0.00461 µM [falling, full curve, poor fit]
Cc1oc(C(=O)O)cc1COc1ccc2c(C)cc(=O)oc2c1 | 9.04 |  | 4.61 µM [falling, single point]
O=C(O)c1ccc(CSc2nnc(-c3cccnc3)n2-c2ccc(Br)cc2)cc1 |  |  | 0.092 µM [rising, full curve, poor fit]
COc1ccc(/C=N/OCC(=O)NC(c2ccccc2)c2ccccc2)cc1OC | -36 | 7.31 µM [falling, partial curve] | 4.11 µM [falling, full curve]
CC(=O)Nc1ccc(S(=O)(=O)Nc2ccccc2N2CCOCC2)cc1 | -6.48 |  | 29.1 µM [rising, single point]
COc1ccc(-c2nc(-c3ccccc3)ncc2S(C)(=O)=O)cc1 |  |  | 20.6 µM [rising, partial curve]
O=C(Nc1cccc(F)c1)N1CC=C(c2ccc(Cl)cc2)CC1 | -66.3 | 32.6 µM [falling, partial curve, poor fit] | 
Cc1nnc(-c2cnn(C)c2N)n1Cc1ccc2c(c1)OCO2 | 7.38 |  | 0.116 µM [rising, full curve, poor fit]
Cc1nc2sccn2c(=O)c1S(=O)(=O)N1CCN(c2ccccc2)CC1 | -3.17 |  | 6.51 µM [rising, single point]
O=C(c1cc([N+](=O)[O-])ccc1N1CCCC1)N1CCCC1 | -44.5 | 20.6 µM [falling, single point] | 
COc1cc2c(cc1OC)C(c1ccc(-c3cc(Cl)ccc3Cl)o1)=NCC2 | -15 | 0.92 µM [falling, full curve] | 0.58 µM [falling, full curve]
Cc1cc(/C=C2\C(=N)N3N=C(c4ccco4)SC3=NC2=O)c(C)n1Cc1ccccc1 | 0.877 | 0.259 µM [falling, partial curve, poor fit] | 
NC(=O)c1ccc(NC(=O)CN2CCN(c3ccc(Cl)cc3)CC2)cc1 |  | 0.326 µM [rising, single point] | 
CC(=O)Nc1ccc2nc(SCC(=O)O)sc2c1 | 3.31 |  | 
CCOC(=O)n1c(=O)oc2cc(S(=O)(=O)N3CCOCC3)ccc21 | 4.56 |  | 
CC(=O)NCCOc1nc(N(C)C)nc(N2CCOCC2)n1 |  |  | 0.651 µM [falling, single point]

2 entries from above in a different format.
SMILES	cell number change [%]	AC50 [1]	AC50 [2]
COc1ccc(/C=N/OCC(=O)NC(c2ccccc2)c2ccccc2)cc1OC	-36	7.31 µM [falling, partial curve]	4.11 µM [falling, full curve]
CC(=O)Nc1ccc(S(=O)(=O)Nc2ccccc2N2CCOCC2)cc1	-6.48		29.1 µM [rising, single point]
